Data reported in patent publication US20220220218A1 (JIANGSU HENGRUI MEDICINE, published 2022).
Residue numbers refer to the chain shown, from its start. These are yes or no findings as the source states them, for the method shown. Some binding calls cover weakened binding; strength is not graded here.

T1: human CD73 (huCD73) protein, antigen of the Biacore assay (human) (UniProt P21589)
T1 sequence (looked up): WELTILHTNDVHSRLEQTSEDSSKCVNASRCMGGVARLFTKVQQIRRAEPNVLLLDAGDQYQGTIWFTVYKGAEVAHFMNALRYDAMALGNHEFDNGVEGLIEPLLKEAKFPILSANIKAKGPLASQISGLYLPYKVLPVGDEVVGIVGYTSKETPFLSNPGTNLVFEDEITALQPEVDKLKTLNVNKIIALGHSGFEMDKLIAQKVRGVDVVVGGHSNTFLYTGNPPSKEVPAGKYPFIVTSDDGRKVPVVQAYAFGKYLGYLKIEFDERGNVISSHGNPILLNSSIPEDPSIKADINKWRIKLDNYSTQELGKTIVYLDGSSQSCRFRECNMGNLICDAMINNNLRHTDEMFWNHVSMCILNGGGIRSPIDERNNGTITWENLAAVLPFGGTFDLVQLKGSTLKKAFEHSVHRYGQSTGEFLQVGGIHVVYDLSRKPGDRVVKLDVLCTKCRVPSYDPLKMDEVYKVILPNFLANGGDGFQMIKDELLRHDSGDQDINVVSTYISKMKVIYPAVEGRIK

B1: Hab110.21 (antibody, human IgG1, kappa, V domains shown)
VH: EVQLVQSGAEVKKPGASVKVSCKASGYTFTSYTMHWVRQAPGQRLEWMGYINPNSFYIEYNQKFKDRVTITRDTSASTAYMELSSLRSEDTAVYYCARGDYDLFYDMDNWGQGTTVTVSS
VL: DIQMTQSPSSLSASVGDRVTITCRASQDIGNSLNWLQQKPGKAIKRLIYATFRLDSGVPSRFSGSRSGTEYTLTISSLQPEDFATYYCQQYASFPWTFGGGTKVEIKR
notes: also called humanized antibody of mab110
B2: Hab127.31d (antibody, human IgG1, kappa, V domains shown)
VH: EVQLVQSGAEVKKPGASVKVSCKASGYTFTAYFMNWVRQAPGQGLEWMGRIYHNKGDTFYSQKFKGRVTMTVDKSTSTVYMELSSLRSEDTAVYYCATSYVGDWGQGTTVTVSS
VL: B1 VL with N31D, K42G, I44L, F52S, R53S, R66G, Q89L
notes: also called humanized antibody of mab127
B3: Hab108.64 (antibody, human IgG1, kappa, V domains shown)
VH: EVTLKQSGPGLVKPTETLTLTCTVSGFSLSSYGIQWVRQPPGKGLEWLGVIWSGGSADYNAAFISRLTISKDTSKSQVVLTMTNMDPVDTATYYCAGQYGSVWGQGTLVTVSS
VL: DIQMTQSPSSLSASVGDRVTITCRASQDIGDRLNWLQQKPGGAIKRLIYATSSLDSGVPKRFSGSGSGTEYTLTISSLQPEDFATYYCLQYAGSWTFGGGTKVEIKR
notes: also called humanized antibody of mab108

These binders were tested against cynomolgus monkey CD73/NT5E protein (His tag), Sino Biological Cat. No. 90192-C08H (cynomolgus monkey) (assay: SPR Biacore T200).

binding, binds:
B1
B2
B3

The binders below were run against T1, human CD73 (huCD73) protein, antigen of the Biacore assay (human) (assay: SPR Biacore T200).

binding, binds:
B1
B2
B3

These binders were tested against cynomolgus monkey CD73/NT5E protein (His tag), Sino Biological Cat. No. 90192-C08H (cynomolgus monkey) (assay: ELISA; cynomolgus monkey CD73 coated on plate).

binding, binds:
B1
B2
B3
